Values quoted from earlier work as cited in US10974081B2, “Treatment and prevention of sleep disorders” (Purdue Pharma L.P., priority 2016, dated 2021).
At least one compound was matched to its structure with a doubt left.

System: SCN neurons
Settings: injected unilaterally into the SCN; cited from earlier work

## CC(C)C[C@H](NC(=O)[C@H](CCCCN)NC(=O)[C@H](CCCN=C(N)N)NC(=O)[C@H](C)NC(=O)[C@H](CO)NC(=O)[C@H](CCCCN)NC(=O)[C@H](CCCN=C(N)N)NC(=O)[C@H](C)NC(=O)CNC(=O)[C@@H](NC(=O)[C@H](Cc1ccccc1)NC(=O)CNC(=O)CNC(=O)[C@@H](N)Cc1ccccc1)[C@@H](C)O)C(=O)N[C@@H](C)C(=O)N[C@@H](CC(N)=O)C(=O)N[C@@H](CCC(N)=O)C(=O)O [nociceptin]
  effect on SCN neurons and circadian clock: modulated the activity of SCN neurons and the response of the circadian clock to light
